Among the data in PMC11780389 are binding values, retold here.

Protein sequences, listed by entry. Tags and fused reporters are not part of them. Residues count along the entry.
UniProt P16390: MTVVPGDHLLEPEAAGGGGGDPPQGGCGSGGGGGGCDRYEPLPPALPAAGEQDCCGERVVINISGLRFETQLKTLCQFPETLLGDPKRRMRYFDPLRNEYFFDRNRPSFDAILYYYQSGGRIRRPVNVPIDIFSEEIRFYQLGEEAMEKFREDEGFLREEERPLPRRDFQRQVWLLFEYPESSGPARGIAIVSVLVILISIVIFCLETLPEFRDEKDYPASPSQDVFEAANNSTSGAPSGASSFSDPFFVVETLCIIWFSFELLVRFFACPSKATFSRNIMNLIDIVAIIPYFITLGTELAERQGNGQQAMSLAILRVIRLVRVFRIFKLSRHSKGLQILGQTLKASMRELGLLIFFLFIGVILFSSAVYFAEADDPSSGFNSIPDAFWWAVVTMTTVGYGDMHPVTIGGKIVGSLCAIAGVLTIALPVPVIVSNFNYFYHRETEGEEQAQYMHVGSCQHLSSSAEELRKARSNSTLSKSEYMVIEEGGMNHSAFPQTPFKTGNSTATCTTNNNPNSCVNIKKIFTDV
UniProt P11021, residues 19-654: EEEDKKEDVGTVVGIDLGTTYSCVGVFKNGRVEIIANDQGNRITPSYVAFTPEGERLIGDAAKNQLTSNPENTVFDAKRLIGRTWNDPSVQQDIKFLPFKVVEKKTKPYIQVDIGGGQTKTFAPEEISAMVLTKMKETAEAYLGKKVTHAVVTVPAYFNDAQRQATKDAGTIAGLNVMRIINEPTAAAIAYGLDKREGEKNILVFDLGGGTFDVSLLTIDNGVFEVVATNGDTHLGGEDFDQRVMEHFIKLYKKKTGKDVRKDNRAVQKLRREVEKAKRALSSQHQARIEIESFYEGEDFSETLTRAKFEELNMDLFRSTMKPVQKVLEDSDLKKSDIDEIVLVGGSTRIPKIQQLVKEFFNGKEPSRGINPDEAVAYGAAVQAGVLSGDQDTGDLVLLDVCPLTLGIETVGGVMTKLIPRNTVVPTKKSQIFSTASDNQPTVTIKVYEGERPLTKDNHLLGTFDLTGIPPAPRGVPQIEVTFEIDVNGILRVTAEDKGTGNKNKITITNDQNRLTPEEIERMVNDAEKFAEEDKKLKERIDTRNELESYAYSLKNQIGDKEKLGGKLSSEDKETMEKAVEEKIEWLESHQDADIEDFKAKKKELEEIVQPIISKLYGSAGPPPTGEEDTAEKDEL
UniProt Q9UQ35: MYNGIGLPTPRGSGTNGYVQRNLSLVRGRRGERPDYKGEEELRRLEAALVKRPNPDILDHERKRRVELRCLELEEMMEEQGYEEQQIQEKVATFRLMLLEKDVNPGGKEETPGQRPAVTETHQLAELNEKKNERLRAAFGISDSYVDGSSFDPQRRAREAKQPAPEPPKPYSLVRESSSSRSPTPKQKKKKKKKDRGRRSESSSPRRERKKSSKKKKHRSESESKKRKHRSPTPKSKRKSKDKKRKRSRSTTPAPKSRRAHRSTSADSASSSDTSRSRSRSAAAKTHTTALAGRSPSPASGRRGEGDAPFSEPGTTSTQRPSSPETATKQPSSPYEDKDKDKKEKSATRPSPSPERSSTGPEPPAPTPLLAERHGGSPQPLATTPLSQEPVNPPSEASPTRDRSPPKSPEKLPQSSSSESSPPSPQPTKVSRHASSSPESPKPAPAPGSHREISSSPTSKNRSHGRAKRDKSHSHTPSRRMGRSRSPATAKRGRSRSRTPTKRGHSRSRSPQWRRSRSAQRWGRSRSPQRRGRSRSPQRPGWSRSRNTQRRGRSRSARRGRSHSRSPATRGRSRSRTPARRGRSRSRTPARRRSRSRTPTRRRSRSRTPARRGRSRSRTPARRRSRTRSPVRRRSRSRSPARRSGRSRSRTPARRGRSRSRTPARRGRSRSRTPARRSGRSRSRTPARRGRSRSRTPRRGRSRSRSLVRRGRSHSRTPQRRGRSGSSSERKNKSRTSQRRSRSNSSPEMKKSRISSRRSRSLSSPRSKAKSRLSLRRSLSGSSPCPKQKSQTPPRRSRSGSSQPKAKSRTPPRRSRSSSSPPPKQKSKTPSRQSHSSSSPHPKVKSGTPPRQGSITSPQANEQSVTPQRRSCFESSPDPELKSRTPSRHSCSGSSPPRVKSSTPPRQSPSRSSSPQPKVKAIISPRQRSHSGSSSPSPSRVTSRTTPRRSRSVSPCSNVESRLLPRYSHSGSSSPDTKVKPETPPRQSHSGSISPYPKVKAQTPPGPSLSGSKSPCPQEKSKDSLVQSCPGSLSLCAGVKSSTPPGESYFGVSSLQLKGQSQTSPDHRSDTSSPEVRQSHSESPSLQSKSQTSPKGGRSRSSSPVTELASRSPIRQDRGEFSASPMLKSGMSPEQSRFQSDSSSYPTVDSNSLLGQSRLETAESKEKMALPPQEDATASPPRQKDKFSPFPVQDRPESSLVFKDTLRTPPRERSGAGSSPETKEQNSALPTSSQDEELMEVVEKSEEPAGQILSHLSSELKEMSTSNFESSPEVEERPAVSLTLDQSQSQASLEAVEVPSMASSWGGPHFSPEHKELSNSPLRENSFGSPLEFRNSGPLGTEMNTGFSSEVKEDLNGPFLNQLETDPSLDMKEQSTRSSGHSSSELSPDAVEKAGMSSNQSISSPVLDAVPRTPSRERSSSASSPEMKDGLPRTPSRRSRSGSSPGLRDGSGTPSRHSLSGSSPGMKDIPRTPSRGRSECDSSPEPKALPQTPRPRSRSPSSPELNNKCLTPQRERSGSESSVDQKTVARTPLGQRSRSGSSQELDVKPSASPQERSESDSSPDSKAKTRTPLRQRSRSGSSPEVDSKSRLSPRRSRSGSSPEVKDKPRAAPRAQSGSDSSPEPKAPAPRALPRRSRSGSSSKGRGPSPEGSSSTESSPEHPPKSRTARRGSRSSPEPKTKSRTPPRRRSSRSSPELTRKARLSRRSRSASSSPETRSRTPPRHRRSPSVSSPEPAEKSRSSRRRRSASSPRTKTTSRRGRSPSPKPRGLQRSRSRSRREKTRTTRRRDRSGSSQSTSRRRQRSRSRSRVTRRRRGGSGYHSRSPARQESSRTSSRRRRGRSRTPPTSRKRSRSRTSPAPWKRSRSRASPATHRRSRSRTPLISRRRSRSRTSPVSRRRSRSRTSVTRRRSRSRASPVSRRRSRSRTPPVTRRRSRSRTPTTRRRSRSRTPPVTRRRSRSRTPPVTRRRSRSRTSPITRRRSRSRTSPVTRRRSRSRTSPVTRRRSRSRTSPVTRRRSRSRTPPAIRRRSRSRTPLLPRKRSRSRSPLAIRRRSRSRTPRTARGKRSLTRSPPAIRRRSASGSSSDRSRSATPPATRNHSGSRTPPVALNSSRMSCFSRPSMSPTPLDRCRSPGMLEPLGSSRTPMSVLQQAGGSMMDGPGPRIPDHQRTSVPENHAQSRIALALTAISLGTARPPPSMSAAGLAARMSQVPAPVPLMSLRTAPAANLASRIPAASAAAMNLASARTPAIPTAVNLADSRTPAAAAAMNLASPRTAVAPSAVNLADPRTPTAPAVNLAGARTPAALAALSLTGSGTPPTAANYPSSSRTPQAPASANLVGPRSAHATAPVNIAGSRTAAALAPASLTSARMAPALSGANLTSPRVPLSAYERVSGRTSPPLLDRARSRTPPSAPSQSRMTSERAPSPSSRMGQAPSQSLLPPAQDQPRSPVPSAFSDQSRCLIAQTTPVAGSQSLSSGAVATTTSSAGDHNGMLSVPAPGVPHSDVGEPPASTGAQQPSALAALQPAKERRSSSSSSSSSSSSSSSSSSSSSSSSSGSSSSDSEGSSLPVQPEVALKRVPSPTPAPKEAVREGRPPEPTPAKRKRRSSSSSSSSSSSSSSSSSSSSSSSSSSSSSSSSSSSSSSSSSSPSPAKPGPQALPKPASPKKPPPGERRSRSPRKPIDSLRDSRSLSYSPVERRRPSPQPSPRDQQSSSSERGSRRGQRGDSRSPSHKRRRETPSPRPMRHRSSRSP
UniProt P03899: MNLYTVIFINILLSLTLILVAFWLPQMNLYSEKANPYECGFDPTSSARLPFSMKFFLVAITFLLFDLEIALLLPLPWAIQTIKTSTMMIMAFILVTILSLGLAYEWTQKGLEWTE
UniProt O35685: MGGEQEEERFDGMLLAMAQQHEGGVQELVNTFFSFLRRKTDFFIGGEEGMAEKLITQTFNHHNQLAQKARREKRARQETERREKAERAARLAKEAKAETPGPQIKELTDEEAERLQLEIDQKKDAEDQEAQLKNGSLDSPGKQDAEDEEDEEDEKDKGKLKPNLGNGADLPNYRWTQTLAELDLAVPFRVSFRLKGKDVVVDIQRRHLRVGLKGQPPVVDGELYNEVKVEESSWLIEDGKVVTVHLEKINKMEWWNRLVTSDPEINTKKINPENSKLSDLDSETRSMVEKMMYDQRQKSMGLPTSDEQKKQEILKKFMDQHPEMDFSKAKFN
UniProt P61620: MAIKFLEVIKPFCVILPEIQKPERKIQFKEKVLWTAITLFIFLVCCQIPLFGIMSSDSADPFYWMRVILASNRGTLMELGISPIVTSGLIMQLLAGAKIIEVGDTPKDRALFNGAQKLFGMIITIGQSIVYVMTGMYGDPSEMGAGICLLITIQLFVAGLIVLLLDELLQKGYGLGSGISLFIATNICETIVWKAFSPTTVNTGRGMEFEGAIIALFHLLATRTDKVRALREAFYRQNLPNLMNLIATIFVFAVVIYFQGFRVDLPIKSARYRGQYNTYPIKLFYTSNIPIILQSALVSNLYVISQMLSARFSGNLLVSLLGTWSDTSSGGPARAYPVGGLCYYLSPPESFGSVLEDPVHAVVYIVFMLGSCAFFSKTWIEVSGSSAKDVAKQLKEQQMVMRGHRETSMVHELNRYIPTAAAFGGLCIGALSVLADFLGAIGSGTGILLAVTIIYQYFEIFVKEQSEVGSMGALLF
UniProt P31996, residues 21-326: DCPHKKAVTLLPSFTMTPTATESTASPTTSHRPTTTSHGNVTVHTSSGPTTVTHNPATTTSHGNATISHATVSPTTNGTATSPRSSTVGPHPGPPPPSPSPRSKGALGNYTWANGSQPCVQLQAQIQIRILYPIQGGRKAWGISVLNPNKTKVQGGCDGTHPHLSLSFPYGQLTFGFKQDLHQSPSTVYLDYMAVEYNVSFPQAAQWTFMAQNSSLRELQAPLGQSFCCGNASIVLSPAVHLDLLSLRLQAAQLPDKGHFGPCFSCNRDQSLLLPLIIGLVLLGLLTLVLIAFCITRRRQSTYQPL
UniProt O35604, residues 23-1277: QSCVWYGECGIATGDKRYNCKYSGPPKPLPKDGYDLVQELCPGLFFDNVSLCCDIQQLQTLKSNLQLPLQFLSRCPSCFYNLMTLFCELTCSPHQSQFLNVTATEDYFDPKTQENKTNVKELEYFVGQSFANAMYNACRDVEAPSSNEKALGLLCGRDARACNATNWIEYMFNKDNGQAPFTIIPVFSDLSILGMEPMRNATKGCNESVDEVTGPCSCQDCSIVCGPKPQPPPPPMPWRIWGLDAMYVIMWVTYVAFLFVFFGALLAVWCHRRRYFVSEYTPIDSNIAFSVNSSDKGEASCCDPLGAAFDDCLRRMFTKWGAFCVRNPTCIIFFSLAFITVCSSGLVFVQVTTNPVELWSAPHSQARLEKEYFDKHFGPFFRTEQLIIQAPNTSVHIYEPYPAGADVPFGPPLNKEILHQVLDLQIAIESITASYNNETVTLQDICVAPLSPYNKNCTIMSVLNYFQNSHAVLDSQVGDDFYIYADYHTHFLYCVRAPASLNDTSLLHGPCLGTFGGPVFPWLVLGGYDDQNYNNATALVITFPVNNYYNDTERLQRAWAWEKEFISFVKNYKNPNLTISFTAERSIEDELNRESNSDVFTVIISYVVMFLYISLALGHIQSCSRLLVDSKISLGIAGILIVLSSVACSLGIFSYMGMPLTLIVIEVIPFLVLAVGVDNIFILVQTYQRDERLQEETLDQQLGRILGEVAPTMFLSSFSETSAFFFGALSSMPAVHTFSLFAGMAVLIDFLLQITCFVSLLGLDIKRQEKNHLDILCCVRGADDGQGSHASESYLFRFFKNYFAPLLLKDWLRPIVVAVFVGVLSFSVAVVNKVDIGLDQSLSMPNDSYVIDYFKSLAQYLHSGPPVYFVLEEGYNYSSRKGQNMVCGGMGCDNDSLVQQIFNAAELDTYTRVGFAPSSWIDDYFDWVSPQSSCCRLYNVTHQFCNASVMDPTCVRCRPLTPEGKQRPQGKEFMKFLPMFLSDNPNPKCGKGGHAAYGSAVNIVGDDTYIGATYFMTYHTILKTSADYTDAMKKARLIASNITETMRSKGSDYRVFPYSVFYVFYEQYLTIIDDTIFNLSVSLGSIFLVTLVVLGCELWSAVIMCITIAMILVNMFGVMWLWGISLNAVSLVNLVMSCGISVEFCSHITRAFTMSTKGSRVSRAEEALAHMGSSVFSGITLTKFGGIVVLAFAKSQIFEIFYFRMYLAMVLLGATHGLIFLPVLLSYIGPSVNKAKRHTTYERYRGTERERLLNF
UniProt Q9CQS8: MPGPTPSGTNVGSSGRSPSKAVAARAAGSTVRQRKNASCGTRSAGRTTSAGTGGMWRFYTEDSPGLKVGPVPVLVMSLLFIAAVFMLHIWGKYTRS

Results are given in words; binding and its absence hold for the method and conditions named. In cells and extracts the contact can be indirect. These calls come from enrichment with a bait or labelling near it, and not all partners need be listed.

The target of one test is Kv1.3-TurboID fusion in HEK-293 cells (N-terminal or C-terminal fusion; the sentence does not tell which) (UniProt P16390). The experiment in a line: proximity labelling; TurboID fused to the N or C terminus of Kv1.3, transfected into HEK-293 cells for 24 h, 200 uM biotin for 24 h; lysis in 8 M urea; biotinylated proteins enriched on streptavidin magnetic beads; label-free MS, normalised to TurboID; compared with non-TurboID control and N- against C-terminal fusion; n = 3.
For the substance “HSPA5 (HEK-293) (from UniProt P11021 19-654)”, the binding entry is on record as “binds”.

For the next test, the target named is Kv1.3 C-term Fusion (TurboID on the C terminus of Kv1.3), in HEK-293 cells (UniProt P16390). Described as above.
With CNOT1 (from UniProt A5YKK6 1-2376), the binding result was “binds”.
Same read-out and setting: as for SMAD3 (from UniProt P84022 1-425), the entry is “binds”.

The target in the next test is Kv1.3 N-term Fusion (TurboID on the N terminus of Kv1.3), in HEK-293 cells (UniProt P16390). The description is as above.
On to SRRM2 (from UniProt Q9UQ35 1-2752), for which the binding entry was “binds”.
For EPHX2 (from UniProt P34913 1-555), the binding result was “binds”.

A further test has as its target Kv1.3 C-term Fusion (TurboID on the C terminus of Kv1.3), in BV-2 microglia (UniProt P16390). As to the kind of experiment: proximity labelling; adapted Luminex assay on total lysates of BV-2 Kv1.3-TurboID lines without enrichment: analyte caught on antibody beads, the biotinylated detection antibody left out, biotin put on by TurboID read with streptavidin-phycoerythrin; with or without LPS.
As for “complement C3 (from UniProt P01027 25-1663)”, the binding entry is recorded as “binds”.

Another test shares this target. The experiment in a line: proximity labelling; TurboID fused to Kv1.3 (N-term, C-term, C-term ΔPDZ), stably transduced BV-2 cells; LPS 100 ng/ml or PBS for 24 h, 200 uM biotin for the last 1 h; lysis in 8 M urea; streptavidin magnetic beads; label-free MS, normalised to TurboID; compared with untransduced cells, global TurboID, N- against C-terminal fusion, LPS against PBS, C-term against C-term ΔPDZ; n = 3.
As for NSF (from UniProt P46460 1-744), the binding entry was “binds”.
Consider ND3 (from UniProt P03899 1-115), for which the binding entry is listed as “binds”.
With HSPA9 (from UniProt P38647 47-679), the binding result is on record as “binds”.
As for MYO6 (from UniProt Q64331 1-1262), the binding entry is given as “binds”.
With “complement C3 (from UniProt P01027 25-1663)”, the binding result is “binds”.

For a further test, the target named is Kv1.3 N-term Fusion (TurboID on the N terminus of Kv1.3), in BV-2 microglia (UniProt P16390). Described as above.
On to “TIMM50, a mitochondrial translocase protein (from UniProt Q9D880 22-353)”, for which the binding result is reported as “binds”.
Regarding NUDC (from UniProt O35685 1-332), the binding result is recorded as “binds”.

A further test concerns the target Kv1.3-TurboID fusion in BV-2 microglia (N-terminal or C-terminal fusion; the sentence does not tell which) (UniProt P16390). The test is described as above.
For SEC61A1 (from UniProt P61620 1-476), the binding entry is “binds”.
The same measure, in the same setting: for “HSPA5 (BV-2) (from UniProt P20029 20-655)” the value was “binds”; for “lysosomal protein CD68 (from UniProt P31996 21-326)”, “binds”; for ITGB1 (from UniProt P09055 21-798), “binds”.
The same measure, in the same setting: for SORL1 (from UniProt O88307 82-2215) the value was “binds”.
Consider MRPS30 (from UniProt Q9D0G0 1-442), for which the binding result was “binds”.
For NPC1 (from UniProt O35604 23-1277), the binding result is given as “binds”.
Same read-out and setting: as for SEC61B (from UniProt Q9CQS8 1-96), the entry is “binds”; as for ABCA1 (from UniProt P41233 1-2261), “binds”.
